These are yes or no findings as the source states them, for the method shown. In cells and extracts the contact can be indirect. Some entries that bind do so weakly or less than the wild type. Sequences can lack the tags named with a protein.
Molecular target: T1, TGR5 wt (His-tagged TGR5 wt and TGR5 wt-YFP), Q8TDU6
T1 chain: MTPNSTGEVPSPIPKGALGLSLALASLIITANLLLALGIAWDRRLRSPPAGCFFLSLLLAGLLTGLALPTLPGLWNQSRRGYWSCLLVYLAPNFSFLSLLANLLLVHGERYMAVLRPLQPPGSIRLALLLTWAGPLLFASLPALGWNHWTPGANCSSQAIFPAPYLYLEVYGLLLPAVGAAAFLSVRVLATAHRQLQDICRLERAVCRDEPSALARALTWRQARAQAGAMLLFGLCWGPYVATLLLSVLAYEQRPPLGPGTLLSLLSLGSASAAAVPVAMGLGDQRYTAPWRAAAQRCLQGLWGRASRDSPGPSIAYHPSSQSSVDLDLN
Assay: co-IP; HEK293 cells co-transfected with TGR5-His and a TGR5-YFP variant; IP with anti-His antibody; precipitate deglycosylated with N-glycosidase-F; Western blot with anti-GFP and anti-His; densitometry as GFP to His levels (n = 4)
Details: remark: other sources report otherwise

B1: TGR5 wt (His-tagged TGR5 wt and TGR5 wt-YFP), Q8TDU6 1-330 (receptor)
chain: MTPNSTGEVPSPIPKGALGLSLALASLIITANLLLALGIAWDRRLRSPPAGCFFLSLLLAGLLTGLALPTLPGLWNQSRRGYWSCLLVYLAPNFSFLSLLANLLLVHGERYMAVLRPLQPPGSIRLALLLTWAGPLLFASLPALGWNHWTPGANCSSQAIFPAPYLYLEVYGLLLPAVGAAAFLSVRVLATAHRQLQDICRLERAVCRDEPSALARALTWRQARAQAGAMLLFGLCWGPYVATLLLSVLAYEQRPPLGPGTLLSLLSLGSASAAAVPVAMGLGDQRYTAPWRAAAQRCLQGLWGRASRDSPGPSIAYHPSSQSSVDLDLN
B1 was tested, and the binding was “binds”.
